PubChem BioAssay AID504774 | Drosophila RNAi Screening Center | 2011
The deposit covers about 23,000 reagents; below is an unselected part of those with a known target gene and a result. 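Values are quantile-normalised luminescence on an arbitrary scale; higher means more cells surviving MMS.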 A plus sign joins genes that one reagent is predicted to hit. Not all columns of the deposit are shown.

- Screen: 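Fly genes whose loss alters survival after alkylation damage to DNA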 (primary screen)
- System: Drosophila Kc167 cells
- Reagents: long dsRNA against Drosophila genes, about 0.25 µg dsRNA per well
- Duration: about 6 days: 3 days knock-down, then 3 days with or without MMS
- Conditions: methyl methanesulphonate 0.004% (w/v) for 3 days after knock-down
- Detection: 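Viability in wells given MMS, read as ATP luminescence, normalised by quantiles plate by plate and averaged across replicates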
- Direction: mean viability with MMS and viability with MMS: higher = more surviving cells after MMS

CG9876 (GeneID 37668) [DRSC04586] — mean viability with MMS = 3.55e6; viability with MMS, replicate 1 = 4.11e6
CG43861 + CG12508 (retired record) [DRSC02170] — mean viability with MMS = 3.72e6; viability with MMS, replicate 1 = 4.20e6
Alg3 (GeneID 37754) [DRSC04700] — mean viability with MMS = 3.52e6; viability with MMS, replicate 1 = 3.91e6
wrd (GeneID 42169) [DRSC16337] — mean viability with MMS = 3.00e6; viability with MMS, replicate 1 = 3.59e6
wrd (GeneID 42169) [DRSC16344] — mean viability with MMS = 3.61e6; viability with MMS, replicate 1 = 3.89e6
wrd (GeneID 42169) [DRSC23189] — mean viability with MMS = 3.52e6; viability with MMS, replicate 1 = 3.98e6
Ugt35A1 (GeneID 41334) [DRSC16892] — mean viability with MMS = 3.48e6; viability with MMS, replicate 1 = 3.95e6
Gr93d (GeneID 117470) [DRSC21941] — mean viability with MMS = 3.54e6; viability with MMS, replicate 1 = 4.02e6
CG13157 (GeneID 36355) [DRSC06282] — mean viability with MMS = 3.60e6; viability with MMS, replicate 1 = 4.07e6
CG9933 (GeneID 34700) [DRSC03276] — mean viability with MMS = 3.56e6; viability with MMS, replicate 1 = 4.08e6
CG12206 (GeneID 31316) [DRSC17828] — mean viability with MMS = 3.43e6; viability with MMS, replicate 1 = 3.78e6
betaCOP (GeneID 32820) [DRSC20312] — mean viability with MMS = 3.47e6; viability with MMS, replicate 1 = 4.01e6
GstZ1 (GeneID 41132) [DRSC16478] — mean viability with MMS = 3.70e6; viability with MMS, replicate 1 = 4.20e6
ATPsyngamma (GeneID 43507) [DRSC14094] — mean viability with MMS = 3.37e6; viability with MMS, replicate 1 = 3.74e6
CG31735 (GeneID 318922) [DRSC01518] — mean viability with MMS = 3.53e6; viability with MMS, replicate 1 = 4.00e6

Next part (2 carried over from the part before).
ATPsyngamma (GeneID 43507) [DRSC14094] — mean viability with MMS = 3.37e6; viability with MMS, replicate 1 = 3.74e6
CG31735 (GeneID 318922) [DRSC01518] — mean viability with MMS = 3.53e6; viability with MMS, replicate 1 = 4.00e6
CG13871 (GeneID 37303) [DRSC06430] — mean viability with MMS = 3.43e6; viability with MMS, replicate 1 = 3.88e6
CG13857 (GeneID 42627) [DRSC14707] — mean viability with MMS = 3.50e6; viability with MMS, replicate 1 = 3.95e6
Dif (GeneID 35045) [DRSC03316] — mean viability with MMS = 3.65e6; viability with MMS, replicate 1 = 4.10e6
CG15919 (GeneID 50216) [DRSC06594] — mean viability with MMS = 1.87e6; viability with MMS, replicate 1 = 4.04e6
tj (GeneID 35227) [DRSC02011] — mean viability with MMS = 3.45e6; viability with MMS, replicate 1 = 3.91e6
ND-13A (GeneID 33744) [DRSC03110] — mean viability with MMS = 3.53e6; viability with MMS, replicate 1 = 3.90e6
CG34353 (GeneID 5740590) [DRSC14493] — mean viability with MMS = 3.60e6; viability with MMS, replicate 1 = 3.93e6
CG34353 (GeneID 5740590) [DRSC14517] — mean viability with MMS = 3.74e6; viability with MMS, replicate 1 = 4.23e6
CG34353 (GeneID 5740590) [DRSC14563] — mean viability with MMS = 3.59e6; viability with MMS, replicate 1 = 4.00e6
CG34353 (GeneID 5740590) [DRSC15837] — mean viability with MMS = 3.69e6; viability with MMS, replicate 1 = 4.22e6
CG34353 (GeneID 5740590) [DRSC22429] — mean viability with MMS = 3.54e6; viability with MMS, replicate 1 = 4.02e6
CG4328 (GeneID 39405) [DRSC10410] — mean viability with MMS = 2.79e6; viability with MMS, replicate 1 = 3.40e6
CG4328 (GeneID 39405) [DRSC23146] — mean viability with MMS = 3.49e6; viability with MMS, replicate 1 = 3.98e6
CG13297 (GeneID 38711) [DRSC09971] — mean viability with MMS = 3.77e6; viability with MMS, replicate 1 = 4.26e6
CG34135 (GeneID 4379850) [DRSC12702] — mean viability with MMS = 3.40e6; viability with MMS, replicate 1 = 3.75e6
CG17010 (GeneID 34650) [DRSC02559] — mean viability with MMS = 3.67e6; viability with MMS, replicate 1 = 4.28e6
CG15124 (GeneID 37256) [DRSC06546] — mean viability with MMS = 3.84e6; viability with MMS, replicate 1 = 4.18e6
hoe2 (GeneID 33700) [DRSC00459] — mean viability with MMS = 3.67e6; viability with MMS, replicate 1 = 4.15e6
CG12818 (GeneID 41261) [DRSC14556] — mean viability with MMS = 3.61e6; viability with MMS, replicate 1 = 4.07e6
CG6280 (GeneID 36522) [DRSC06972] — mean viability with MMS = 3.60e6; viability with MMS, replicate 1 = 4.18e6
